Laboratory results taken from publication doi:10.1101/2024.07.29.605622.
Like-named read-outs stand apart in the source and are kept apart here. Results are given in words; binding and its absence hold for the method and conditions named. Binding seen in cells or lysates may run through a third protein. Some results given as binding are weak or reduced against the parent protein; the word gives no strength.

Chains of the proteins cited; added tags and fusions are not shown.
UniProt P51784: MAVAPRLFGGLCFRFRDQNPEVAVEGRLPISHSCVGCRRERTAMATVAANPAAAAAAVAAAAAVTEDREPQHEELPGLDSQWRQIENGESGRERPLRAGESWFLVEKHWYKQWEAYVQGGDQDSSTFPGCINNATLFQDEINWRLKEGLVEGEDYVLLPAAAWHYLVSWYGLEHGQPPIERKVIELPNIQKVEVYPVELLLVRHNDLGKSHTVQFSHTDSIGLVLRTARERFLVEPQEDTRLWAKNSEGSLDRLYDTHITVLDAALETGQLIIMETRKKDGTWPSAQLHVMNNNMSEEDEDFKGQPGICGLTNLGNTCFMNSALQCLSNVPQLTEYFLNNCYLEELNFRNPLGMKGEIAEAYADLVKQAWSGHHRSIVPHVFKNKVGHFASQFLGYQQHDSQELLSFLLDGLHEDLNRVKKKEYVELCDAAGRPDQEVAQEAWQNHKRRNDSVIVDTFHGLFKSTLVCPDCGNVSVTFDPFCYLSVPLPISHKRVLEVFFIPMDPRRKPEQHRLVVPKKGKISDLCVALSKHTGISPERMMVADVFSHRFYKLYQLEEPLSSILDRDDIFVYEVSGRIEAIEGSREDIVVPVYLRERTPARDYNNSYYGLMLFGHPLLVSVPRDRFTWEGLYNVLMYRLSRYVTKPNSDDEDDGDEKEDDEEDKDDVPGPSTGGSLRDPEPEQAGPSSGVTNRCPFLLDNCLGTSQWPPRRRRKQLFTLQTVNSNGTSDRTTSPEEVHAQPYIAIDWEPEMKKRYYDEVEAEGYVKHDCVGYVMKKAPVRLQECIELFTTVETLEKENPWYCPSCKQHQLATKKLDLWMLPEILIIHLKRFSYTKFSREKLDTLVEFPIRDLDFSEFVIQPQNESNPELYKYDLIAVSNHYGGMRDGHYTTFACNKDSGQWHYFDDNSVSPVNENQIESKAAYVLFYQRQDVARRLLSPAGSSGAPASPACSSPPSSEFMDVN
UniProt Q93009: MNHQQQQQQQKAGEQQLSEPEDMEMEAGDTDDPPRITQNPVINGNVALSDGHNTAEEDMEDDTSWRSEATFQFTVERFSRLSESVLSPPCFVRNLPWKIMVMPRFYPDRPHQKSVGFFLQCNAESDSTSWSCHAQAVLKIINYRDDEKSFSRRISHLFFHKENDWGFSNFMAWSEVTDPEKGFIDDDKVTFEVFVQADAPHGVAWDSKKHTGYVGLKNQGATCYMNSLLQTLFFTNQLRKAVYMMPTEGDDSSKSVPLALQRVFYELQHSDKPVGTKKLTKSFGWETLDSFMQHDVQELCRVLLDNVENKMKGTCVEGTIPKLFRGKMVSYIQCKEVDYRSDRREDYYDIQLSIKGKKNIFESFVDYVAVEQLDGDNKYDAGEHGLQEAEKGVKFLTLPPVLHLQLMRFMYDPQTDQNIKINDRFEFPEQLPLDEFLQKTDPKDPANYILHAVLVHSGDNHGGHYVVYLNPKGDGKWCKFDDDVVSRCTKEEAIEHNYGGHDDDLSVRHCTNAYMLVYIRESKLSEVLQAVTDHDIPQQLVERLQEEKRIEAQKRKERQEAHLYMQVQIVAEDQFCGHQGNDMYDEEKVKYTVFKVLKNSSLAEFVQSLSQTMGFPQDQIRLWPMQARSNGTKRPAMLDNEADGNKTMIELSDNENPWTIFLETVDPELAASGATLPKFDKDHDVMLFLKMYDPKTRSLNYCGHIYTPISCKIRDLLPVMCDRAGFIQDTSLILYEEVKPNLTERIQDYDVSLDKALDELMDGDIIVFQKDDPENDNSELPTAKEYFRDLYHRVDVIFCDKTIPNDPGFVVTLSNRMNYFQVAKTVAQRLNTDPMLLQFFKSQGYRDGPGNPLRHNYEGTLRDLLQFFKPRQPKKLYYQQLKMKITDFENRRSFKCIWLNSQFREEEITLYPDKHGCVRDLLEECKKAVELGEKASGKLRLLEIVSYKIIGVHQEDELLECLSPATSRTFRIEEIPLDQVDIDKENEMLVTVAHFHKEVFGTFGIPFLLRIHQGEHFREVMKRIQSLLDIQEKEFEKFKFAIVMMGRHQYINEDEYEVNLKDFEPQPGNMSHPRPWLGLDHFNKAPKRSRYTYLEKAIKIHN

Experiments:
Assay in all cases: co-IP
[1] = molecular target: USP11 (endogenous) (human (endogenous in SH-EP)) (UniProt P51784)
[2] = molecular target: USP11 (endogenous) (human (endogenous in SH-EP)) (UniProt P51784); remark: listed apart in the source
[3] = molecular target: USP7 (endogenous) (human (endogenous in SH-EP)) (UniProt Q93009)

| binding [1] | binding [2] | binding [3] | Substance |
| --- | --- | --- | --- |
| binds | binds | – | USP7 (endogenous) (from UniProt Q93009 1-1102) (enzyme) |
| – | – | binds | USP11 (endogenous) (from UniProt P51784 1-963) (enzyme) |
